Experimental data: PubChem BioAssay AID652243 (Drosophila RNAi Screening Center, 2013)
The screen tested about 24,000 reagents; below is an unselected part of those that have a named target and a result. In the full data, 246 (1%) got an active call. 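Plates not normalised; calls are printed but the firefly/Renilla ratio behind them is not deposited; fold cut for lowering reported inconsistently.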 The raw values are shown without normalisation. The numbers tell different reagents against one gene apart. Names joined by + are all predicted targets of the reagent. Not stated in the record: the amount of reagent.

Test: 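Fly regulators of androgen-dependent reporter output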 (primary screen)
System: Drosophila S2R+ cells
Knock-down reagent: long dsRNA against Drosophila genes
Duration: 72 h (48 h, then 24 h hormone)
Conditions: synthetic androgen R1881 at 10 nM for 24 h
Measured: 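Per-well raw luminescence of the androgen-driven firefly reporter and of the Renilla control, two replicates each, without normalisation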
Reading the numbers: firefly reporter light: higher = more light from androgen-responsive reporter; Renilla control light: higher = more constitutive control signal (cell number, transfection)
Call rule: 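Across duplicate plates, a knock-down whose log firefly/Renilla ratio shifted a set fold down or up from the GFP/LacZ control mean was a hit; the downward cut appears as both 1.5 and 3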
Meaning of the calls: active = hit: reporter lowered or raised; inactive = no hit

gene	reagent	firefly reporter light, replicate 1	firefly reporter light, replicate 2	Renilla control light, replicate 1	Renilla control light, replicate 2	outcome
Cyp6d2 (Cytochrome P450 6d2)	1	3.32e5	3.07e5	2.30e6	2.71e6	inactive
Cyp6d2 (Cytochrome P450 6d2)	2	7.65e5	3.80e5	5.69e5	4.89e5	inactive
Yip1d1 (Yip1 domain-containing 1)	1	3.31e5	2.74e5	2.11e6	2.17e6	inactive
CG7488	1	1.35e5	1.27e5	1.94e6	1.66e6	inactive
nej (nejire)	1	39548	51840	1.14e6	1.37e6	inactive
nej (nejire)	2	25014	26439	3.23e5	3.59e5	active
nej (nejire)	3	7.50e5	5.89e5	7.19e5	7.71e5	inactive
nej (nejire)	4	1.05e5	86020	5.80e5	4.86e5	active
Sec13 (Secretory 13)	1	82991	93294	6.48e5	6.39e5	inactive
Drsl5 (Drosomycin-like 5)	1	1.68e5	1.99e5	2.02e6	2.48e6	inactive
Gr33a (Gustatory receptor 33a)	1	2.59e5	1.58e5	1.43e6	9.36e5	inactive
pyr (pyramus)	1	4.97e5	3.12e5	4.78e5	4.45e5	inactive
CG32026	1	1.60e5	2.02e5	4.97e5	4.83e5	inactive
CG32026	2	2.91e5	2.95e5	4.68e5	5.39e5	inactive
Hrb27C (Heterogeneous nuclear ribonucleoprotein at 27C)	1	3.75e5	3.98e5	9.35e5	1.60e6	inactive
Hrb27C (Heterogeneous nuclear ribonucleoprotein at 27C)	2	2.63e5	4.47e5	6.76e5	1.24e6	inactive
Ir87a (Ionotropic receptor 87a)	1	52938	68068	9.72e5	7.75e5	inactive
Ir87a (Ionotropic receptor 87a)	2	2.00e5	1.69e5	2.20e5	3.77e5	inactive
CG34404	1	86510	54397	2.47e6	1.85e6	active
CG34404	2	87047	57706	4.92e5	4.70e5	inactive
CG34404	3	5.37e5	4.44e5	9.39e5	6.93e5	inactive
Osi1 (Osiris 1)	1	16511	262			inactive
CysRS-m (Cysteinyl-tRNA synthetase, mitochondrial)	1	1.27e6	1.40e6	2.60e6	2.52e6	inactive

Entries listed above with an active call:
gene	reagent	firefly reporter light, replicate 1	firefly reporter light, replicate 2	Renilla control light, replicate 1	Renilla control light, replicate 2	outcome
nej (nejire)	2	25014	26439	3.23e5	3.59e5	active
nej (nejire)	4	1.05e5	86020	5.80e5	4.86e5	active
CG34404	1	86510	54397	2.47e6	1.85e6	active

Continued:
gene	reagent	firefly reporter light, replicate 1	firefly reporter light, replicate 2	Renilla control light, replicate 1	Renilla control light, replicate 2	outcome
CG7458 + CR34262	1	6.83e5	6.17e5	1.82e6	1.98e6	inactive
CG33230	1	6.42e5	8.19e5	1.11e6	1.19e6	inactive
wds (will die slowly)	1	2.65e5	4.01e5	2.13e6	2.63e6	inactive
CG32554	1	1.03e6	9.26e5	9.93e5	7.89e5	inactive
CG32554	2	3.86e5	4.99e5	1.30e6	1.30e6	inactive
cola + swif	1	5.07e5	3.11e5	2.73e6	1.84e6	inactive
cola + swif	2	4.32e5	3.96e5	8.35e5	1.18e6	inactive
mRpL2 (mitochondrial ribosomal protein L2)	1	1.58e5	1.67e5	2.57e6	1.90e6	inactive
Oatp58Dc (Organic anion transporting polypeptide 58Dc)	1	8.79e5	3.18e5	1.63e6	6.73e5	inactive
Oatp58Dc (Organic anion transporting polypeptide 58Dc)	2	4.86e5	3.37e5	9.20e5	7.89e5	inactive
Oatp58Dc (Organic anion transporting polypeptide 58Dc)	3	7.64e5	7.70e5	1.58e6	1.87e6	inactive
CG17562	1	1.52e5	1.61e5	2.05e6	2.64e6	inactive
CG33287	1	4.08e5	1.00e6	8.95e5	1.53e6	inactive
CG31549	1	9.08e5	7.36e5	2.41e6	1.69e6	inactive
Ehbp1 (Eps15 homology domain containing protein-binding protein 1)	1	1.11e6	1.18e6	1.79e6	1.48e6	inactive
Ehbp1 (Eps15 homology domain containing protein-binding protein 1)	2	5.45e5	4.84e5	6.73e5	8.25e5	inactive
Nup160 + RfC38	1	9.78e5	8.79e5	1.95e6	2.09e6	inactive
